Earlier results, collected in patent publication US12168055B2, “Sonosensitization” (priority 2019, dated 2024).
Like-named read-outs stand apart in the source and are kept apart here. At least one compound was matched to its structure with a doubt left.

What was measured:
[1] = system: rat ascites hepatoma 130 cells; conditions: ultrasound 1.92 MHz, cited from earlier work; for cells damaged: hematoporphyrin 50 μg/mL
[2] = system: mouse sarcoma 180 cells; conditions: ultrasound 1.92 MHz, cited from earlier work; for cells damaged: hematoporphyrin 50 μg/mL
[3] = hematoporphyrin 25 μg/mL, 3.18 W/cm^2

In the case of `CC1=C(CCC(=O)O)c2cc3[nH]c(cc4nc(cc5[nH]c(cc1n2)c(C)c5C(C)O)C(C)=C4C(C)O)c(C)c3CCC(=O)O` (stereo not drawn) [hematoporphyrin], the cell damage [1, 3] is given as 96%, the cells damaged ([1]; 2.21 W/cm^2) is given as 95% and the cells damaged ([1]; 3.18 W/cm^2) is given as 96%. The cell damage [2, 3] was 98%, the cells damaged ([2]; 1.27 W/cm^2) was 67% and the cells damaged ([2]; 3.18 W/cm^2) was 98%.
